No constants are given. Whether binding was seen depends on the method and setting. Some entries that bind do so weakly or less than the wild type. Where a sequence is shown, tags or fusion partners need not be part of it.
Biological target: T1, His6-I3-mEos3.2 (UniProt O60927)
T1 sequence: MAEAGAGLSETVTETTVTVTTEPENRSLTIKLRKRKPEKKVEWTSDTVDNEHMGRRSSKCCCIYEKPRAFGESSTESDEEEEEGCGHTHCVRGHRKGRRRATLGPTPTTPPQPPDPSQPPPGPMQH
Test: co-purification (NiNTA affinity, ion exchange, SEC); SDS22, PP1 and His6-I3-mEos3.2 expressed together in High Five insect cells; His6 tag on I3-mEos3.2

binding: binds
B1: SDS22 (protein, UniProt Q15435 1-360)
chain: MAAERGAGQQQSQEMMEVDRRVESEESGDEEGKKHSSGIVADLSEQSLKDGEERGEEDPEEEHELPVDMETINLDRDAEDVDLNHYRIGKIEGFEVLKKVKTLCLRQNLIKCIENLEELQSLRELDLYDNQIKKIENLEALTELEILDISFNLLRNIEGVDKLTRLKKLFLVNNKISKIENLSNLHQLQMLELGSNRIRAIENIDTLTNLESLFLGKNKITKLQNLDALTNLTVLSMQSNRLTKIEGLQNLVNLRELYLSHNGIEVIEGLENNNKLTMLDIASNRIKKIENISHLTELQEFWMNDNLLESWSDLDELKGARSLETVYLERNPLQKDPQYRRKVMLALPSVRQIDATFVRF

From publication PMC11486656
